PubChem BioAssay AID602196, INSERM | 2012
The deposit covers about 23,000 reagents; this is an unselected part. 455 of all reagents (2%) count as active. 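Active includes both protection and sensitisation; some change values fall well beyond the stated -50 to +50 range.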 Further read-outs or replicates are left out here. No sequences are given here. Not stated in the record: the amount of reagent.

Screen: 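Knock-downs that protect lung cancer cells from cisplatin or sensitise them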
Cells: human A549 lung cancer cells
Knock-down reagent: siRNA pair against human genes
Time to read-out: 48 h transfection before cisplatin; time from cisplatin to read-out not stated
Conditions: cisplatin at a dose killing half of control-siRNA cells; exact dose and duration not given
Read-out: 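Cisplatin cell death as a shift from the 50% death seen with control siRNA; siRNAs toxic or growth-blocking alone scored 0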
Direction: two-siRNA summed score (-2 to +2): higher = both siRNAs protect from cisplatin killing; -2 means both sensitise
Hit rule: 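siRNAs harmful alone (LDH or WST-1) get 0; others get +1 for less and -1 for more cisplatin killing; genes are active when the two siRNAs give the same sign, summing to ±2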
Calls: active = both siRNAs shift cisplatin killing the same way; inactive = no consistent shift, or siRNA harmful alone

| gene | two-siRNA summed score (-2 to +2) | activity call |
| --- | --- | --- |
| CEACAM3 | -1 | inactive |
| UBE2B | -1 | inactive |
| CHRNE | 0 | inactive |
| GPS2P1 | 1 | inactive |
| DLEU7 | 0 | inactive |
| ZNF488 | 0 | inactive |
| TMEM182 | 0 | inactive |
| PANX1 | 0 | inactive |
| LOC441115 | 2 | active |
| LOC441540 | 1 | inactive |
| NUAK1 | 1 | inactive |
| F12 | 0 | inactive |
| ABCB6 | 0 | inactive |
| CYP3A5 | 0 | inactive |
| TRIM72 | 0 | inactive |
| GM2A | 0 | inactive |
| PRDM16 | 0 | inactive |
| LOC440595 | 0 | inactive |
| TRAPPC1 | -1 | inactive |
| LOC392275 | 0 | inactive |
| SAMD11 | 0 | inactive |
| CCDC78 | -1 | inactive |
| IRS4 | 0 | inactive |
| POU2F2 | -1 | inactive |
| TDP2 | 0 | inactive |
| DNAJC12 | 0 | inactive |
| LINC01124 | 0 | inactive |
| LOC388581 | 1 | inactive |
| SEPTIN14 | 1 | inactive |
| REXO5 | 0 | inactive |
| MRPL34 | 0 | inactive |
| ADAMTS14 | -1 | inactive |
| CAST | 1 | inactive |
| RBM4B | 1 | inactive |
| GABPB1 | 1 | inactive |
| TRIM6-TRIM34 | 1 | inactive |
| PRICKLE1 | 0 | inactive |
| ATP10D | 1 | inactive |
| RTL6 | 0 | inactive |
| H2BW1 | 0 | inactive |
| DEPP1 | 1 | inactive |
| MRPL2 | 0 | inactive |
| CYB561A3 | 0 | inactive |
| TOR1AIP1 | 0 | inactive |
| SLC25A48-AS1 | 0 | inactive |
| LOC339692 | 0 | inactive |
| GPR68 | 0 | inactive |
| LOC440159 | 0 | inactive |
| TMED7 | 0 | inactive |
| LOC388193 | 0 | inactive |
| LOC442723 | 0 | inactive |
| NHERF1 | 1 | inactive |
| ISY1 | 0 | inactive |
| RNF186 | 0 | inactive |
| ERBIN | 0 | inactive |
| H2BP3 | 0 | inactive |
| KCNN3 | 0 | inactive |
| POLR3D | 0 | inactive |
| PHF14 | 0 | inactive |
| LARP7 | 1 | inactive |
| NRGN | 0 | inactive |
| LOC439961 | 0 | inactive |
| MASP2 | 0 | inactive |
| ESR2 | 0 | inactive |
| CDC42 | 1 | inactive |
| RAB33B | 0 | inactive |
| TLR5 | 0 | inactive |
| STMN2 | 0 | inactive |
| NTRK2 | 0 | inactive |
| LOC283257 | 1 | inactive |
| OR2M5 | 1 | inactive |
| AKAP6 | -1 | inactive |
| SNX15 | 1 | inactive |

Reagents listed so far called active, once more:
| gene | two-siRNA summed score (-2 to +2) | activity call |
| --- | --- | --- |
| LOC441115 | 2 | active |
